From article PMC5510225
These are yes or no findings as the source states them, for the method shown. Some entries that bind do so weakly or less than the wild type. For some assays here: Sequences can lack the tags named with a protein.

By UniProt entry, the sequences of proteins in these tests, tags left out.
UniProt Q9IH62: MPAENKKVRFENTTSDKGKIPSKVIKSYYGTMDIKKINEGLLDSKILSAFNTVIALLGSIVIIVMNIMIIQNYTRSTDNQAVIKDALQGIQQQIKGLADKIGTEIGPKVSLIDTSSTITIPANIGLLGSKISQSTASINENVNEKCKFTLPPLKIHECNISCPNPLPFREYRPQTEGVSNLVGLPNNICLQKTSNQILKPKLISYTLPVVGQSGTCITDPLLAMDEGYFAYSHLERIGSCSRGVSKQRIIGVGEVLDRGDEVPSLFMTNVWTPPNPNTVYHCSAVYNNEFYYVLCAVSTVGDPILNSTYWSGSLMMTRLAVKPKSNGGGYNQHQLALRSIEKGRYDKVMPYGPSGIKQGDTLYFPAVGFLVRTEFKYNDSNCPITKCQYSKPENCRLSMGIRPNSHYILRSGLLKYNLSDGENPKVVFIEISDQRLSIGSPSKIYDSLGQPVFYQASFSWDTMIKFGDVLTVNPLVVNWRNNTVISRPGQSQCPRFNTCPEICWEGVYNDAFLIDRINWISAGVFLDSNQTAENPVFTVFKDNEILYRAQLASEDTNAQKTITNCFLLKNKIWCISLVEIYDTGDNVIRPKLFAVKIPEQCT
UniProt P08362: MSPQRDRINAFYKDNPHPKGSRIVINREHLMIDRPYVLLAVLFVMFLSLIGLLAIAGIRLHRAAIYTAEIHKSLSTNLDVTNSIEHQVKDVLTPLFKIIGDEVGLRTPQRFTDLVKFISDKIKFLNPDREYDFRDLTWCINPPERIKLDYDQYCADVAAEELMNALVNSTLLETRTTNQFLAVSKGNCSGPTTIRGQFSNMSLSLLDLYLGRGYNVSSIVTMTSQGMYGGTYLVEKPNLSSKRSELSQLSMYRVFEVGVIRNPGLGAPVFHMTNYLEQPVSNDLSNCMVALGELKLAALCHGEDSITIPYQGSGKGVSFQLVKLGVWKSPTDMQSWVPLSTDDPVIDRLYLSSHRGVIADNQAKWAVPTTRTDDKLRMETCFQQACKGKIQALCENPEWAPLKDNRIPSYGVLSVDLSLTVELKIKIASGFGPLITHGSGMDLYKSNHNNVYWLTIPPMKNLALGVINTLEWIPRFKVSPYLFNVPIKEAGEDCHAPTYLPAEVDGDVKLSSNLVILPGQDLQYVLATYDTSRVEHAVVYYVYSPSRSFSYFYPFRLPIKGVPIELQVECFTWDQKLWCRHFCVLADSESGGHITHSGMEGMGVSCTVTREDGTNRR

Assays:
[1] = molecular target: Nipah virus attachment glycoprotein, HA-tagged, expressed on transfected cells (Nipah virus) (UniProt Q9IH62); experiment: flow cytometry on cells; only the binder purified
[2] = molecular target: measles virus haemagglutinin glycoprotein, expressed on transfected cells (measles virus) (UniProt P08362); experiment: flow cytometry on cells

B1: human ephrinB3-hFc (Fc fusion, UniProt Q15768)
chain: LSLEPVYWNSANKRFQAEGGYVLYPQIGDRLDLLCPRARPPGPHSSPNYEFYKLYLVGGAQGRRCEAPPAPNLLLTCDRPDLDLRFTIKFQEYSPNLWGHEFRSHHDYYIIATSDGTREGLESLQGGVCLTRGMKVLLRVGQSPRGGAVPRKPVSEMPMERDRGAAHSLEPGKENLPGDPTSNATSRGAEGPLPPPSMP
binding [1]: binds

B2: soluble human CD150 with a C-terminal FLAG epitope tag (receptor, UniProt Q13291)
chain: ASYGTGGRMMNCPKILRQLGSKVLLPLTYERINKSMNKSIHIVVTMAKSLENSVENKIVSLDPSEAGPPRYLGDRYKFYLENLTLGIRESRKEDEGWYLMTLEKNVSVQRFCLQLRLYEQVSTPEIKVLNKTQENGTCTLILGCTVEKGDHVAYSWSEKAGTHPLNPANSSHLLSLTLGPQHADNIYICTVSNPISNNSQTFSPWPGCRTDPSETKP
binding [2]: binds
